From the supplement of paper PMC12823440, “Inhibitors supercharge kinase turnover through native proteolytic circuits” (Nature, 2025)
Structures can show the parent of a compound that is named as a salt. This is one part of the list. Hit calls seldom repeat between salt and free forms of one compound.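 Kinases, fused to nanoluciferase, were expressed in K562 cells; luminescence was measured every 4 h from 2 to 18 h as percent of control (DMSO = 100%, positive control = 0%). A time point is decreased if signal falls significantly (2 sigma). Hits were called by the authors by a rule that is not shown; the count of time points alone does not decide it.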

Amino acid sequences for entries named in this document (tags omitted). A change or cut given only in a name is not applied to a line headed by its entry.
UniProt Q9BRS2: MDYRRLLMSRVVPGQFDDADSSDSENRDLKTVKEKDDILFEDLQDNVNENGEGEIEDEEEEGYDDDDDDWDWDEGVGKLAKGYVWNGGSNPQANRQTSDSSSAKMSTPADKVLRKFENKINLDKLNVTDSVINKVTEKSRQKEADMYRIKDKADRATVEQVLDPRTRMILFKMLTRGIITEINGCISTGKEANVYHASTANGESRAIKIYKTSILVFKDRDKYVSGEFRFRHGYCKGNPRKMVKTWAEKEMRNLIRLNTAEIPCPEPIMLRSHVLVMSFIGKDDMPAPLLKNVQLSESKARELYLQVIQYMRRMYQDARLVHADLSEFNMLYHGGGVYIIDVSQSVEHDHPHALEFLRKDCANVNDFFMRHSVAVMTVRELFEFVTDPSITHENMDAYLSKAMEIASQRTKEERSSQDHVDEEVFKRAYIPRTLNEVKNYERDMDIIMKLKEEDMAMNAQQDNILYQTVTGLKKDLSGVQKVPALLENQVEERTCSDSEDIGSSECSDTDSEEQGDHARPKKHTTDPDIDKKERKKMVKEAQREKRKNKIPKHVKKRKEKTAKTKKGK
UniProt Q01974, whole entry: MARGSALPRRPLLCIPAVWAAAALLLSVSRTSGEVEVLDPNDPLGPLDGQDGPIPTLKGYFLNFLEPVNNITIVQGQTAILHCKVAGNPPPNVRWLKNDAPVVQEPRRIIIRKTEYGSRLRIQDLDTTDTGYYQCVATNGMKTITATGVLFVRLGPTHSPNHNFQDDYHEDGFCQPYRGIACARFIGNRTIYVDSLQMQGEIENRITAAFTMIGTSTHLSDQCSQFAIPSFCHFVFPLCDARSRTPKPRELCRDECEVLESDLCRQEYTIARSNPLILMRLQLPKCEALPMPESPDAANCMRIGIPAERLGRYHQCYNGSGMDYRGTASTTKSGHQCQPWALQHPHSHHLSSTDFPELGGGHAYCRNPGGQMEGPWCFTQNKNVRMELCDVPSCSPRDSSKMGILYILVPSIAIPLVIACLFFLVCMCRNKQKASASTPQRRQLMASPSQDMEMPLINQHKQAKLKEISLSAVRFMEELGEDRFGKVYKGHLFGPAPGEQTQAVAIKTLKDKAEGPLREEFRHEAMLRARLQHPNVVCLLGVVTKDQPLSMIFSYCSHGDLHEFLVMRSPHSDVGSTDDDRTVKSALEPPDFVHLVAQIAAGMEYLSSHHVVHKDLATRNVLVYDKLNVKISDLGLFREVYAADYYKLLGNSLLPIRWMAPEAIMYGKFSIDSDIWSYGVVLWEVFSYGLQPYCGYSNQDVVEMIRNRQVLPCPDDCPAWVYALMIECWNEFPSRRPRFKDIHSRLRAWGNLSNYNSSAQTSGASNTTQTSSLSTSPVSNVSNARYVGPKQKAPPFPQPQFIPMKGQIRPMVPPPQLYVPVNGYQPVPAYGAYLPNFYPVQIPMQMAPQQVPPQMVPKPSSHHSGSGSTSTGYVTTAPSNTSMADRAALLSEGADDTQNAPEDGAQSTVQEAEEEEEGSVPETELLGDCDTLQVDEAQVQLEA
UniProt Q15418, whole entry: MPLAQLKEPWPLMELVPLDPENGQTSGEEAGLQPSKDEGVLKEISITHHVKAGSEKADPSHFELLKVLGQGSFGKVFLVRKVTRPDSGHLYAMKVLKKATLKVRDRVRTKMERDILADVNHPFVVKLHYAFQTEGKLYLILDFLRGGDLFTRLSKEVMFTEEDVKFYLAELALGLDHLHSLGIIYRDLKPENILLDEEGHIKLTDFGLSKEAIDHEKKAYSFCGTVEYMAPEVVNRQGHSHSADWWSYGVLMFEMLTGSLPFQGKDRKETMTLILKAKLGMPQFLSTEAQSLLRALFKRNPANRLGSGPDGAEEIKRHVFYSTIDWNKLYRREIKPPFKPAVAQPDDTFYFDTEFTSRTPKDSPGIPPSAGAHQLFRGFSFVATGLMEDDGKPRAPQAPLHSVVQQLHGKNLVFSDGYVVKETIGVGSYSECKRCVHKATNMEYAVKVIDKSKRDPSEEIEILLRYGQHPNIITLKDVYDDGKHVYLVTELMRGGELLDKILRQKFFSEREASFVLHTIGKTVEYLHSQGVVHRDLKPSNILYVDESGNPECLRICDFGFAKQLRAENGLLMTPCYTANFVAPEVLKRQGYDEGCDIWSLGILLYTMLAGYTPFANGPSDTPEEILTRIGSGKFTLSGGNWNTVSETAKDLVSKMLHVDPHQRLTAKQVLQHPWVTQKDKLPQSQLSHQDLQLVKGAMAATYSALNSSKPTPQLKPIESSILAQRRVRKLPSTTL
UniProt Q9Y6E0: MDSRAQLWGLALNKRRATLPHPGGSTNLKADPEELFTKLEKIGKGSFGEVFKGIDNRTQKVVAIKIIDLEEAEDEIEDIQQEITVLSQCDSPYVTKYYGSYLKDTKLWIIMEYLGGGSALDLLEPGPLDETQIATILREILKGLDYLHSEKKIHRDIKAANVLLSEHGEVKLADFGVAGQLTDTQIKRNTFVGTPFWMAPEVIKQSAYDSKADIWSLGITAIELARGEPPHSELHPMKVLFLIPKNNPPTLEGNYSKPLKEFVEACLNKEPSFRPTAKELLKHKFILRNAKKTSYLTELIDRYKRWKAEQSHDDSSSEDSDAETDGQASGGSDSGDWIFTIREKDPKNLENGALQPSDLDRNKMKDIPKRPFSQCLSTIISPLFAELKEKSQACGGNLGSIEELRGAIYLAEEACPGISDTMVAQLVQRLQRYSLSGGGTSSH
UniProt Q15208: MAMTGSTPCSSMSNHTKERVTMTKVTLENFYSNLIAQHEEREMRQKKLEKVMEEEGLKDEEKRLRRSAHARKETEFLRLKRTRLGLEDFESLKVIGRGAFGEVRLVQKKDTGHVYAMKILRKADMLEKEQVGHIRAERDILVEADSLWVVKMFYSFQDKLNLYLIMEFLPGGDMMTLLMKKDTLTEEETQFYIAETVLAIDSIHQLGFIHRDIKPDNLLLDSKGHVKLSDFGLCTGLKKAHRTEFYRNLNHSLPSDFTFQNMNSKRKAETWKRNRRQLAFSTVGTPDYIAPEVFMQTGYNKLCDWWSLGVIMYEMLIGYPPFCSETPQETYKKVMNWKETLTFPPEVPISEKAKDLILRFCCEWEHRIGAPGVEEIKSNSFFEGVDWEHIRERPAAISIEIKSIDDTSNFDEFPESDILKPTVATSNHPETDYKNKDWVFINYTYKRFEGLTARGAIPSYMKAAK
UniProt P42680: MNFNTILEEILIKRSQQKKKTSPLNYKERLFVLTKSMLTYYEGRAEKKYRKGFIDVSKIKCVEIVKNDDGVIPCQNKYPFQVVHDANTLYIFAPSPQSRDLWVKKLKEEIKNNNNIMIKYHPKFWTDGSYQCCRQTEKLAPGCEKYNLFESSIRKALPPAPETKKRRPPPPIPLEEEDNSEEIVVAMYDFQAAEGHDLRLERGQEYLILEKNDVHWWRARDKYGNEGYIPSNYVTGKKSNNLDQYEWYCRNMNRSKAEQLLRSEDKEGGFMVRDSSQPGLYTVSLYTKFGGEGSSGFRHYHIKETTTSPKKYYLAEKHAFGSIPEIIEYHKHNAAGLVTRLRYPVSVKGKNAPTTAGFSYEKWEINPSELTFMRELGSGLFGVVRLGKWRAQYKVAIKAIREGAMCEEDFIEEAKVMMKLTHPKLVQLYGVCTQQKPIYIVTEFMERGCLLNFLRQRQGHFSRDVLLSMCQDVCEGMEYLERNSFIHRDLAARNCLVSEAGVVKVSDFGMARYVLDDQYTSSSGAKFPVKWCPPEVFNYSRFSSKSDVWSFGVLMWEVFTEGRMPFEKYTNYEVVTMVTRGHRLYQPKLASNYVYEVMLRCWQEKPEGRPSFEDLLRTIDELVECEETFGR
UniProt P29597: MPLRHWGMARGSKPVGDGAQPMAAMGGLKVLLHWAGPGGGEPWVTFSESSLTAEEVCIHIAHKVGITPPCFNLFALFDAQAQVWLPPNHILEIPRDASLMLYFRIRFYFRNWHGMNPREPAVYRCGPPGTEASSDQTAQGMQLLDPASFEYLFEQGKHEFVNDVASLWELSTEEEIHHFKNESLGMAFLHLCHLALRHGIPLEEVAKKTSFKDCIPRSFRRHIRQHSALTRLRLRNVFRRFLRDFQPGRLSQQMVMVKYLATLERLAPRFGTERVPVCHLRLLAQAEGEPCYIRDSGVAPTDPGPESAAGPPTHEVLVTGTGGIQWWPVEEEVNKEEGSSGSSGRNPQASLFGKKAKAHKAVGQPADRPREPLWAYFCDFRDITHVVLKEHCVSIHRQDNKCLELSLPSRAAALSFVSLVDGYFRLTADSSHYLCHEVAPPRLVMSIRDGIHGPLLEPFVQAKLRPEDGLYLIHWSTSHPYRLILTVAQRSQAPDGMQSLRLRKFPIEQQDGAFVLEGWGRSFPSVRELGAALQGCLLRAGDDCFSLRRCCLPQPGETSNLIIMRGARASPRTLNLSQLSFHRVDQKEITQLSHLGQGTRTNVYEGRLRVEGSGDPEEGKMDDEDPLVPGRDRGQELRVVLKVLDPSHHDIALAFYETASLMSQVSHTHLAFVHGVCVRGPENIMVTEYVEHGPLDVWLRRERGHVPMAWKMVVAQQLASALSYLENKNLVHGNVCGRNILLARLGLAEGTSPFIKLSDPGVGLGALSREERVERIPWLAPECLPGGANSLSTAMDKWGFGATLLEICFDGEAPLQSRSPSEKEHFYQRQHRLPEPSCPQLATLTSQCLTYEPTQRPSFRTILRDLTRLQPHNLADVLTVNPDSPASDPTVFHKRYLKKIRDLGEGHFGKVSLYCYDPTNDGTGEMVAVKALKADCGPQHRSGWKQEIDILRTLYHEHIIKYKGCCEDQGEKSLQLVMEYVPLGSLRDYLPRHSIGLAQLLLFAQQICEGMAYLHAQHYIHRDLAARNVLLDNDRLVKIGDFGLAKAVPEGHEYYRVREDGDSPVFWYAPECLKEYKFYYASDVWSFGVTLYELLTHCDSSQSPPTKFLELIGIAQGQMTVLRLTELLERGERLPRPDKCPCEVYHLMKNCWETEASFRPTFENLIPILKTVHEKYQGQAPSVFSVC
UniProt P43403: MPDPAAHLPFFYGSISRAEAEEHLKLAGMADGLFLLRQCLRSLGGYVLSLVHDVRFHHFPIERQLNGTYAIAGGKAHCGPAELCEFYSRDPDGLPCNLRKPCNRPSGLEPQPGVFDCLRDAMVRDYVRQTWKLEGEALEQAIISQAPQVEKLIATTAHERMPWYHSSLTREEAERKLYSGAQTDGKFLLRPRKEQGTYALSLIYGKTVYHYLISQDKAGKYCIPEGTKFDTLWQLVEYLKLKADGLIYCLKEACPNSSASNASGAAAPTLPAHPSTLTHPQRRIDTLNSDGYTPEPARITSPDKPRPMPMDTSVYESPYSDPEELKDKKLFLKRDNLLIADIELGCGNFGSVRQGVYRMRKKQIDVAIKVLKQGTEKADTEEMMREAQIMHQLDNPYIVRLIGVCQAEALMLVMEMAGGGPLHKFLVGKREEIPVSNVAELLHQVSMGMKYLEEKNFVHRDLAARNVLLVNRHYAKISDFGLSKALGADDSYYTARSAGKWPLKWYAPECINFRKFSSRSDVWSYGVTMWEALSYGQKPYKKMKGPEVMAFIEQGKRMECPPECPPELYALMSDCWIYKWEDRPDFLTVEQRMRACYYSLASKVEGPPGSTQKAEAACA
UniProt P11802: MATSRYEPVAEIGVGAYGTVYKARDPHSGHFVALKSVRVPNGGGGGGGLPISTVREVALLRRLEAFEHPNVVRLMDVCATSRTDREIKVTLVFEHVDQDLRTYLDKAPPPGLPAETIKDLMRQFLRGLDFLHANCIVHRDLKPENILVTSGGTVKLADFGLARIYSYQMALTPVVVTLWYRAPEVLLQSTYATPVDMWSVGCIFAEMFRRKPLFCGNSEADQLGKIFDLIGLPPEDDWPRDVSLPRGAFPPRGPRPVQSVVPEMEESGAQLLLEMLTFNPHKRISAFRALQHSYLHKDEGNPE
UniProt P50613: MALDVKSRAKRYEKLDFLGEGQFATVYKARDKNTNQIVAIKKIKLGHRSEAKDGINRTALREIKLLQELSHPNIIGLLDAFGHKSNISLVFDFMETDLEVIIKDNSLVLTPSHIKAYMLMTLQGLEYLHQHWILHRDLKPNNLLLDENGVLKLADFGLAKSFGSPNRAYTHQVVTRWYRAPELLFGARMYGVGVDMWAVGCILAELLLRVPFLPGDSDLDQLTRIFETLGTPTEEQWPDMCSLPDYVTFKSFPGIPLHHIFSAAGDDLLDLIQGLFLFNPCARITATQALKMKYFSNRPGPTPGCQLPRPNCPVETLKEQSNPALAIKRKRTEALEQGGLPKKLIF

Assays:
Conditions in all cases: K562, 2-18 h
RET = RET (UniProt P07949); assay: kinase-Nluc reporter destabilization hit call (1 = scored as downregulated) (binary); higher = compound decreases kinase abundance
[1] = target: RET_M918T (clone: RET_mut) (UniProt P07949); assay: as above
RIOK1 = RIOK1 (UniProt Q9BRS2); assay: as above
RIPK1 = RIPK1 (UniProt Q13546); assay: as above
RIPK2 = RIPK2 (UniProt O43353); assay: as above
ROR2 = ROR2 (UniProt Q01974); assay: as above
RPS6KA1 = RPS6KA1 (UniProt Q15418); assay: as above
SPHK1 = SPHK1 (UniProt Q9NYA1); assay: as above
SRC = SRC (UniProt P12931); assay: as above
STK24 = STK24 (UniProt Q9Y6E0); assay: as above
STK38 = STK38 (UniProt Q15208); assay: as above
SYK = SYK (UniProt P43405); assay: as above
TEC = TEC (UniProt P42680); assay: as above
TYK2 = TYK2 (UniProt P29597); assay: as above
ULK3 = ULK3 (UniProt Q6PHR2); assay: as above
YES1 = YES1 (UniProt P07947); assay: as above
ZAK = ZAK (UniProt Q9NYL2); assay: as above
ZAP70 = ZAP70 (UniProt P43403); assay: as above
CDK4 = CDK4 (UniProt P11802); assay: number of time points (of 4; 2 h point missing) at which kinase-Nluc abundance scored as decreased, DMSO-normalised (count); higher = more persistent destabilization
CDK7 = CDK7 (UniProt P50613); assay: as above

SMILES | kinase-Nluc reporter destabilization hit call (RET; 10 µM) | kinase-Nluc reporter destabilization hit call ([1]; 10 µM) | kinase-Nluc reporter destabilization hit call (RIOK1; 10 µM) | kinase-Nluc reporter destabilization hit call (RIPK1; 10 µM) | kinase-Nluc reporter destabilization hit call (RIPK2; 10 µM) | kinase-Nluc reporter destabilization hit call (ROR2; 10 µM) | kinase-Nluc reporter destabilization hit call (RPS6KA1; 10 µM) | kinase-Nluc reporter destabilization hit call (SPHK1; 10 µM) | kinase-Nluc reporter destabilization hit call (SRC; 10 µM) | kinase-Nluc reporter destabilization hit call (STK24; 10 µM) | kinase-Nluc reporter destabilization hit call (STK38; 10 µM) | kinase-Nluc reporter destabilization hit call (SYK; 10 µM) | kinase-Nluc reporter destabilization hit call (TEC; 10 µM) | kinase-Nluc reporter destabilization hit call (TYK2; 10 µM) | kinase-Nluc reporter destabilization hit call (ULK3; 10 µM) | kinase-Nluc reporter destabilization hit call (YES1; 10 µM) | kinase-Nluc reporter destabilization hit call (ZAK; 10 µM) | kinase-Nluc reporter destabilization hit call (ZAP70; 10 µM) | number of time points (CDK4; 10 µM) | number of time points (CDK7; 10 µM) | kinase-Nluc reporter destabilization hit call (RET; 2.5 µM) | kinase-Nluc reporter destabilization hit call ([1]; 2.5 µM) | kinase-Nluc reporter destabilization hit call (RIOK1; 2.5 µM) | kinase-Nluc reporter destabilization hit call (RIPK1; 2.5 µM) | kinase-Nluc reporter destabilization hit call (RIPK2; 2.5 µM) | kinase-Nluc reporter destabilization hit call (ROR2; 2.5 µM) | kinase-Nluc reporter destabilization hit call (RPS6KA1; 2.5 µM) | kinase-Nluc reporter destabilization hit call (SPHK1; 2.5 µM) | kinase-Nluc reporter destabilization hit call (SRC; 2.5 µM) | kinase-Nluc reporter destabilization hit call (STK24; 2.5 µM) | kinase-Nluc reporter destabilization hit call (STK38; 2.5 µM) | kinase-Nluc reporter destabilization hit call (SYK; 2.5 µM) | kinase-Nluc reporter destabilization hit call (TEC; 2.5 µM) | kinase-Nluc reporter destabilization hit call (TYK2; 2.5 µM) | kinase-Nluc reporter destabilization hit call (ULK3; 2.5 µM) | kinase-Nluc reporter destabilization hit call (YES1; 2.5 µM) | kinase-Nluc reporter destabilization hit call (ZAK; 2.5 µM) | kinase-Nluc reporter destabilization hit call (ZAP70; 2.5 µM) | number of time points (CDK4; 2.5 µM) | number of time points (CDK7; 2.5 µM)
CCCC(=O)Nc1ncnc2c1ncn2[C@@H]1O[C@@H]2COP(=O)(O)O[C@H]2[C@H]1OC(=O)CCC [Bucladesine (calcium)] | inactive: 0 | inactive: 0 | inactive: 0 | inactive: 0 | inactive: 0 | inactive: 0 | inactive: 0 | inactive: 0 | inactive: 0 | inactive: 0 | inactive: 0 | inactive: 0 | inactive: 0 | inactive: 0 | inactive: 0 | inactive: 0 | inactive: 0 | inactive: 0 | 0 | 0 |  |  |  |  |  |  |  |  |  |  |  |  |  |  |  |  |  |  |  | 
N#CCNC(=O)c1ccc(-c2ccnc(Nc3ccc(N4CCOCC4)cc3)n2)cc1 [Momelotinib] | inactive: 0 | inactive: 0 | inactive: 0 | inactive: 0 | inactive: 0 | inactive: 0 | inactive: 0 | inactive: 0 | inactive: 0 | inactive: 0 | inactive: 0 | inactive: 0 | inactive: 0 | inactive: 0 | inactive: 0 | inactive: 0 | inactive: 0 | inactive: 0 | 0 | 4 |  |  |  |  |  |  |  |  |  |  |  |  |  |  |  |  |  |  |  | 
O=C(Nc1cnn2ccc(N3CCC[C@@H]3c3cc(F)ccc3F)nc12)N1CC[C@H](O)C1 [Larotrectinib sulfate] | inactive: 0 | inactive: 0 | inactive: 0 | inactive: 0 | inactive: 0 | inactive: 0 | inactive: 0 | inactive: 0 | inactive: 0 | inactive: 0 | inactive: 0 | inactive: 0 | inactive: 0 | inactive: 0 | inactive: 0 | inactive: 0 | inactive: 0 | inactive: 0 | 0 | 0 |  |  |  |  |  |  |  |  |  |  |  |  |  |  |  |  |  |  |  | 
C=CC(=O)Nc1cc(Nc2nccc(-c3cn(C)c4ccccc34)n2)c(OC)cc1N(C)CCN(C)C [Osimertinib mesylate] |  |  |  |  |  |  |  |  |  |  |  |  |  |  |  |  |  |  |  |  | inactive: 0 | inactive: 0 | inactive: 0 | inactive: 0 | inactive: 0 | inactive: 0 | inactive: 0 | inactive: 0 | inactive: 0 | inactive: 0 | inactive: 0 | inactive: 0 | inactive: 0 | inactive: 0 | inactive: 0 | inactive: 0 | inactive: 0 | inactive: 0 | 0 | 1
COc1cc(/C=C/C(=O)O)ccc1O [Ferulic acid (sodium)] | inactive: 0 | inactive: 0 | inactive: 0 | inactive: 0 | inactive: 0 | inactive: 0 | inactive: 0 | inactive: 0 | inactive: 0 | inactive: 0 | inactive: 0 | inactive: 0 | inactive: 0 | inactive: 0 | inactive: 0 | inactive: 0 | inactive: 0 | inactive: 0 | 0 | 0 |  |  |  |  |  |  |  |  |  |  |  |  |  |  |  |  |  |  |  | 
FC(F)(F)c1ccc(CNc2ccc(Cc3c[nH]c4ncc(Cl)cc34)cn2)cn1 [Pexidartinib] | inactive: 0 | inactive: 0 | inactive: 0 | inactive: 0 | inactive: 0 | inactive: 0 | inactive: 0 | inactive: 0 | inactive: 0 | inactive: 0 | inactive: 0 | inactive: 0 | inactive: 0 | inactive: 0 | inactive: 0 | inactive: 0 | inactive: 0 | inactive: 0 | 0 | 0 |  |  |  |  |  |  |  |  |  |  |  |  |  |  |  |  |  |  |  | 
N=C(N)NC(=O)c1nc(Cl)c(N)nc1N [Amiloride (hydrochloride)] | inactive: 0 | inactive: 0 | inactive: 0 | inactive: 0 | inactive: 0 | inactive: 0 | inactive: 0 | inactive: 0 | inactive: 0 | inactive: 0 | inactive: 0 | inactive: 0 | inactive: 0 | inactive: 0 | inactive: 0 | inactive: 0 | inactive: 0 | inactive: 0 | 0 | 0 |  |  |  |  |  |  |  |  |  |  |  |  |  |  |  |  |  |  |  | 
Cc1cc(Nc2ncc(Cl)c(Nc3ccccc3S(=O)(=O)C(C)C)n2)c(OC(C)C)cc1C1CCNCC1 [Ceritinib] |  |  |  |  |  |  |  |  |  |  |  |  |  |  |  |  |  |  |  |  | inactive: 0 | inactive: 0 | inactive: 0 | inactive: 0 | inactive: 0 | inactive: 0 | inactive: 0 | inactive: 0 | inactive: 0 | inactive: 0 | inactive: 0 | inactive: 0 | inactive: 0 | inactive: 0 | inactive: 0 | inactive: 0 | inactive: 0 | inactive: 0 | 0 | 0
